These are yes or no findings as the source states them, for the method shown. In cells and extracts the contact can be indirect. A yes stands for co-enrichment or nearness to the bait. Other partners may have been found.
T1: ALFIN-LIKE 1 (AL1) (Arabidopsis thaliana) (UniProt Q9FFF5)
T1 sequence: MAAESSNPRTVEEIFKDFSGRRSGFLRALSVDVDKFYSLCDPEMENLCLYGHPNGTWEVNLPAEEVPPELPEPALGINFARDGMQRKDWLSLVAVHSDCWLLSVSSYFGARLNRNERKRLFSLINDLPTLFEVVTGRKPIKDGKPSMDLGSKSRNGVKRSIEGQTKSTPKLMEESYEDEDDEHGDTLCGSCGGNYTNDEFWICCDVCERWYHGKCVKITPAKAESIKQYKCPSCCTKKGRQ

T2: ALFIN-LIKE 2 (AL2) (Arabidopsis thaliana) (UniProt Q9SRM4)
T2 sequence: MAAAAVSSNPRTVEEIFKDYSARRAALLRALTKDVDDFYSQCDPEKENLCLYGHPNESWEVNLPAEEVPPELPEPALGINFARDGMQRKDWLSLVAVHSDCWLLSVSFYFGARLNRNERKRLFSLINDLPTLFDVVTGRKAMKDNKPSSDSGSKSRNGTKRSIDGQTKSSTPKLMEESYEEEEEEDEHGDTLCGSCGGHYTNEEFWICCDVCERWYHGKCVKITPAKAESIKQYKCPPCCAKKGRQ

T3: ALFIN-LIKE 3 (AL3) (Arabidopsis thaliana) (UniProt Q9M2B4)
T3 sequence: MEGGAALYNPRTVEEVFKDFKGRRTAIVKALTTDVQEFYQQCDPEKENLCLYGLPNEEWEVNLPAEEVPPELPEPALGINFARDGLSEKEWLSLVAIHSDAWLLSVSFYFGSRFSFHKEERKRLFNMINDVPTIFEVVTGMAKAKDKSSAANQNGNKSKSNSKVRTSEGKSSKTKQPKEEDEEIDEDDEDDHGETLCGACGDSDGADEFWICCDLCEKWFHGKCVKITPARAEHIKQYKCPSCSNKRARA

T4: ALFIN-LIKE 4 (AL4) (Arabidopsis thaliana) (UniProt O81488)
T4 sequence: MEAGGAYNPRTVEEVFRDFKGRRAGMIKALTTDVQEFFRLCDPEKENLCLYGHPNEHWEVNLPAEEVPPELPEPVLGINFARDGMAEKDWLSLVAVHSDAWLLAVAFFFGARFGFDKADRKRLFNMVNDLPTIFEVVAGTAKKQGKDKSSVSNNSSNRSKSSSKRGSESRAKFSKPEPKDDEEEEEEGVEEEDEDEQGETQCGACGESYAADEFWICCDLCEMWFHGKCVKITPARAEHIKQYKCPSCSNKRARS

T5: ALFIN-LIKE 5 (AL5) (Arabidopsis thaliana) (UniProt Q5XEM9)
T5 sequence: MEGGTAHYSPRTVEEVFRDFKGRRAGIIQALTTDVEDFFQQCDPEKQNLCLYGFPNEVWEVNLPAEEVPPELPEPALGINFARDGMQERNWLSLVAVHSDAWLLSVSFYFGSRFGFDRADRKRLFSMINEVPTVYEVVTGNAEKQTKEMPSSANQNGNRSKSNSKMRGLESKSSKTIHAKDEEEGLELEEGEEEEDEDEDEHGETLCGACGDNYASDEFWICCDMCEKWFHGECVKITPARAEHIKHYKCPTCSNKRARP

T6: ALFIN-LIKE 6 (AL6) (Arabidopsis thaliana) (UniProt Q8S8M9)
T6 sequence: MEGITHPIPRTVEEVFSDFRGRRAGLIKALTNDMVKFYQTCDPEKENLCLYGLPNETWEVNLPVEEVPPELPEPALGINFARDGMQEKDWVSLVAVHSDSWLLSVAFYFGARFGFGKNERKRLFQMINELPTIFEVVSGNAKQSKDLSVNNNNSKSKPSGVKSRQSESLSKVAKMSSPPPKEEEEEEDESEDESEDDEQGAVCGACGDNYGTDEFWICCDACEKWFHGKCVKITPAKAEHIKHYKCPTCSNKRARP

T7: ALFIN-LIKE 7 (AL7) (Arabidopsis thaliana) (UniProt Q8LA16)
T7 sequence: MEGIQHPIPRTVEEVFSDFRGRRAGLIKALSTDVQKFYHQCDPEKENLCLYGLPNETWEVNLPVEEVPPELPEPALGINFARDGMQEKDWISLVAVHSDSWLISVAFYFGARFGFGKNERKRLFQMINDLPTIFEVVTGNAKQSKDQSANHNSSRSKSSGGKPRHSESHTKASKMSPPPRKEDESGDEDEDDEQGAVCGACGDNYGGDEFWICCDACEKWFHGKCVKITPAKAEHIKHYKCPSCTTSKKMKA

B1: AL2 (recombinant, pull-down) (natural protein, Arabidopsis thaliana, UniProt Q9SRM4 1-246, looked up)
chain: T2 sequence
B2: ALFIN-LIKE 5 (AL5) (protein, UniProt Q5XEM9 1-260)
chain: T5 sequence
B3: ALFIN-LIKE 6 (AL6) (protein, UniProt Q8S8M9 1-256)
chain: T6 sequence
B4: ALFIN-LIKE 7 (AL7) (protein, UniProt Q8LA16 1-252)
chain: T7 sequence
B5: ALFIN-LIKE 4 (AL4) (protein, UniProt O81488 1-255)
chain: T4 sequence
B6: ALFIN-LIKE 3 (AL3) (protein, UniProt Q9M2B4 1-250)
chain: T3 sequence
B7: ALFIN-LIKE 1 (AL1) (protein, UniProt Q9FFF5 1-241)
chain: T1 sequence

target: T1, ALFIN-LIKE 1 (AL1) (Arabidopsis thaliana); assay: affinity purification with mass spectrometry

binding, binds:
B1
B2
B3
B4
B5
B6

target: T2, ALFIN-LIKE 2 (AL2) (Arabidopsis thaliana); assay: affinity purification with mass spectrometry

binding, binds:
B2
B3
B4
B7
B5
B6

target: T3, ALFIN-LIKE 3 (AL3) (Arabidopsis thaliana); assay: affinity purification with mass spectrometry

binding, binds:
B1
B2
B3
B4
B7
B5

target: T4, ALFIN-LIKE 4 (AL4) (Arabidopsis thaliana); assay: affinity purification with mass spectrometry

binding, binds:
B1
B2
B3
B4
B7
B6

target: T5, ALFIN-LIKE 5 (AL5) (Arabidopsis thaliana); assay: affinity purification with mass spectrometry

binding, binds:
B1
B3
B4
B7
B5
B6

target: T6, ALFIN-LIKE 6 (AL6) (Arabidopsis thaliana); assay: affinity purification with mass spectrometry

binding, binds:
B1
B2
B4
B7
B5
B6

target: T7, ALFIN-LIKE 7 (AL7) (Arabidopsis thaliana); assay: affinity purification with mass spectrometry

binding, binds:
B1
B2
B3
B7
B5
B6
